From article PMC9501056
These are yes or no findings as the source states them, for the method shown. Binding seen in cells or lysates may run through a third protein. For part of these data: Binding calls can cover weak binding; strength is not graded here. Values belong to the molecule of their own block, whether it stands above or below them.

Columns and labels:
[1] = target: T1, BEI (Oryza sativa subsp. indica cv. IR36 (endogenous in developing seeds)) (UniProt Q01401); assay: co-IP; soluble proteins of developing seeds of the be2b mutant at 10 DAF incubated with isozyme-specific antibodies and protein A magnetic beads; washed with PBS pH 7.4; Western blotting
T1 sequence: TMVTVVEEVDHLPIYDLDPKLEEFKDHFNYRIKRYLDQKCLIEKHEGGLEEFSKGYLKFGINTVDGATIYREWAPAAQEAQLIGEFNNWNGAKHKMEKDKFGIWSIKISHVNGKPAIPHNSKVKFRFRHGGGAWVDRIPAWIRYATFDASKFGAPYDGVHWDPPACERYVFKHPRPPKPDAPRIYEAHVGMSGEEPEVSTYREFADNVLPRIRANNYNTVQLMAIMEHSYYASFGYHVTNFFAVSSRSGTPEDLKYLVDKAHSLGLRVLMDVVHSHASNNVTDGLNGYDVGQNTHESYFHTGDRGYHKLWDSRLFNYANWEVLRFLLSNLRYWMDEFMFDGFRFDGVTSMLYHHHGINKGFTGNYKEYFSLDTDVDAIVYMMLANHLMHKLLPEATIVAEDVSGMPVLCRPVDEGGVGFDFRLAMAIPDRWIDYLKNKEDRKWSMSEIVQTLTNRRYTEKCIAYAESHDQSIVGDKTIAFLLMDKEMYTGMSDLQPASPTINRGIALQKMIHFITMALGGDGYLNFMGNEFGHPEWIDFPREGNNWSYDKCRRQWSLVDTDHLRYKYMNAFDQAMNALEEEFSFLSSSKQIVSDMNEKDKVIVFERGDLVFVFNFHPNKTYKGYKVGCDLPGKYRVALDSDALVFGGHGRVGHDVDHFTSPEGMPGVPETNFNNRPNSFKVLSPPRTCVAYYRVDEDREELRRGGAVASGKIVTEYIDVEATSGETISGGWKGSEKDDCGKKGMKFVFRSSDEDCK

[2] = target: T2, SSIIa (Oryza sativa subsp. indica cv. IR36 (endogenous in developing seeds)) (UniProt P0C586); assay: as above
T2 sequence: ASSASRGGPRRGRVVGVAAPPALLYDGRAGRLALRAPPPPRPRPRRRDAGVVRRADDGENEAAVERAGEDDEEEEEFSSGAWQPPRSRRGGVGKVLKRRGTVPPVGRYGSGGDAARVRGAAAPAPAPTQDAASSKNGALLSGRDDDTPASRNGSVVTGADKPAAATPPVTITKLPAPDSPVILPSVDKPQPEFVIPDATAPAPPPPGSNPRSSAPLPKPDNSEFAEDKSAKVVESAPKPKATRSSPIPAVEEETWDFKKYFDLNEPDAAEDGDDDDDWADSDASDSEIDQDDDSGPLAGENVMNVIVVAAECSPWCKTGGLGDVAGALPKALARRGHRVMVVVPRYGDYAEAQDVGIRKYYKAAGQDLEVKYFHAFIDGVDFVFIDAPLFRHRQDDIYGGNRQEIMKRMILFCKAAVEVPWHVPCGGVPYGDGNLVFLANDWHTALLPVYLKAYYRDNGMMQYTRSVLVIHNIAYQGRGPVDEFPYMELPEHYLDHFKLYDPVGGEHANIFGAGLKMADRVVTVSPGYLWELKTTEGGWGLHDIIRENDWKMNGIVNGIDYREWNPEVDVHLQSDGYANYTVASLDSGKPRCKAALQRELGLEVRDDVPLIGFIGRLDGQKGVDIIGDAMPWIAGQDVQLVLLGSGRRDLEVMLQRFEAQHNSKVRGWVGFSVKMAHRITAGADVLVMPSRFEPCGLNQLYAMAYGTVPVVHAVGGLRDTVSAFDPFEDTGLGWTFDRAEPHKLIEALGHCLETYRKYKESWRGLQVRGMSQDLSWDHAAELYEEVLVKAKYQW

[3] = target: T3, SSI (Oryza sativa subsp. indica cv. IR36 (endogenous in developing seeds)) (UniProt A2Y9M4); assay: co-IP; soluble proteins of developing seeds of WT (IR36) at 10 DAF incubated with isozyme-specific antibodies and protein A magnetic beads; washed with PBS pH 7.4; Western blotting
T3 sequence: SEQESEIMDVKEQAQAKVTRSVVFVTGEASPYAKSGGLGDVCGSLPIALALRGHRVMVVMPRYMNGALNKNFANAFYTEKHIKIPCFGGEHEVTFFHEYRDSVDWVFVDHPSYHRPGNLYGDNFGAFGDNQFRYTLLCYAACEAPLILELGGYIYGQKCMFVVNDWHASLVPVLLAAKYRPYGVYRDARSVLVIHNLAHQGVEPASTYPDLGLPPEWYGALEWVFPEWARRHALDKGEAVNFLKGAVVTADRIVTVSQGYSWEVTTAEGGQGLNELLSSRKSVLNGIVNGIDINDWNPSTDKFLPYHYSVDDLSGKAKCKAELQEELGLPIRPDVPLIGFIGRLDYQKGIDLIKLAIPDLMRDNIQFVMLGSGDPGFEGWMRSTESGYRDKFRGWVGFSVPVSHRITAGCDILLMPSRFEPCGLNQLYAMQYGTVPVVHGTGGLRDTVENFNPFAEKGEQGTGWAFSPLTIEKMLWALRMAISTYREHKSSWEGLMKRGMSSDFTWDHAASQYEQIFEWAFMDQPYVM

[4] = target: T1, BEI (Oryza sativa subsp. indica cv. IR36 (endogenous in developing seeds)); assay: as above
[5] = target: T2, SSIIa (Oryza sativa subsp. indica cv. IR36 (endogenous in developing seeds)); assay: co-IP; soluble proteins of developing seeds of the be2b mutant at 15 DAF incubated with isozyme-specific antibodies and protein A magnetic beads; washed with PBS pH 7.4; Western blotting
[6] = target: T2, SSIIa (Oryza sativa subsp. indica cv. IR36 (endogenous in developing seeds)); assay: co-IP; soluble proteins of developing seeds of the be2b mutant at 5 DAF incubated with isozyme-specific antibodies and protein A magnetic beads; washed with PBS pH 7.4; Western blotting
[7] = target: T3, SSI (Oryza sativa subsp. indica cv. IR36 (endogenous in developing seeds)); assay: co-IP; soluble proteins of developing seeds of WT (IR36) at 5 DAF incubated with isozyme-specific antibodies and protein A magnetic beads; washed with PBS pH 7.4; Western blotting
[8] = target: T1, BEI (Oryza sativa subsp. indica cv. IR36 (endogenous in developing seeds)); assay: as above
[9] = target: SSIVb (Oryza sativa subsp. indica cv. IR36 (endogenous in developing seeds)); assay: co-IP; soluble proteins of developing seeds of the be2b mutant at 15 DAF incubated with isozyme-specific antibodies and protein A magnetic beads; washed with PBS pH 7.4; Western blotting
[10] = target: BEIIa (Oryza sativa subsp. indica cv. IR36 (endogenous in developing seeds)); assay: as above
[11] = target: SSIVb (Oryza sativa subsp. indica cv. IR36 (endogenous in developing seeds)); assay: co-IP; soluble proteins of developing seeds of the be2b mutant at 10 DAF incubated with isozyme-specific antibodies and protein A magnetic beads; washed with PBS pH 7.4; Western blotting
[12] = target: BEIIa (Oryza sativa subsp. indica cv. IR36 (endogenous in developing seeds)); assay: as above
[13] = target: SSIVb (Oryza sativa subsp. indica cv. IR36 (endogenous in developing seeds)); assay: co-IP; soluble proteins of developing seeds of WT (IR36) at 10 DAF incubated with isozyme-specific antibodies and protein A magnetic beads; washed with PBS pH 7.4; Western blotting
[14] = target: BEIIa (Oryza sativa subsp. indica cv. IR36 (endogenous in developing seeds)); assay: as above
[15] = target: SSIVb (Oryza sativa subsp. indica cv. IR36 (endogenous in developing seeds)); assay: co-IP; soluble proteins of developing seeds of WT (IR36) at 15 DAF incubated with isozyme-specific antibodies and protein A magnetic beads; washed with PBS pH 7.4; Western blotting
[16] = target: BEIIb (Oryza sativa subsp. indica cv. IR36 (endogenous in developing seeds)); assay: as above
[17] = target: BEIIa (Oryza sativa subsp. indica cv. IR36 (endogenous in developing seeds)); assay: as above
[18] = target: SSIVb (Oryza sativa subsp. indica cv. IR36 (endogenous in developing seeds)); assay: co-IP; soluble proteins of developing seeds of the be2b mutant at 5 DAF incubated with isozyme-specific antibodies and protein A magnetic beads; washed with PBS pH 7.4; Western blotting
[19] = target: BEIIa (Oryza sativa subsp. indica cv. IR36 (endogenous in developing seeds)); assay: as above
[20] = target: SSIVb (Oryza sativa subsp. indica cv. IR36 (endogenous in developing seeds)); assay: co-IP; soluble proteins of developing seeds of WT (IR36) at 5 DAF incubated with isozyme-specific antibodies and protein A magnetic beads; washed with PBS pH 7.4; Western blotting
[21] = target: BEIIa (Oryza sativa subsp. indica cv. IR36 (endogenous in developing seeds)); assay: as above

- binding [1]: binds
- binding [2]: no binding
- binding [3]: binds
- binding [4]: binds weakly
- binding [5]: no binding
- binding [6]: no binding
- binding [7]: binds weakly
- binding [8]: binds weakly
Molecule: SSIVb (enzyme)

- binding [9]: no binding
- binding [10]: no binding
- binding [11]: no binding
- binding [12]: no binding
- binding [13]: no binding
- binding [14]: no binding
- binding [15]: no binding
- binding [16]: binds weakly
- binding [17]: no binding
- binding [18]: no binding
- binding [19]: no binding
- binding [20]: no binding
- binding [21]: no binding
B1: ISA1 (enzyme, UniProt D0TZF0 55-803)
chain: SVASAVEVGVGEDEEEGVEEEEEEVEAVVMPERYALGGACRVLAGMPAPLGATALDGGVNFAVYSAGASAASLCLFTPDDLEADEVTEEVPLDPLFNRTGNVWHVFIEGELHNMLYGYRFDGMFAPHCGQYFDVSNVVVDPYAKAVISRGEYGVPGPGGDCWPQMAGMIPLPYSTFDWQGDLPLRYPQKDLVIYEMHLRGFTKHSSSNVEHPGTYIGAISKLDYLKELGVNCVELMPCHEFNELEYFSCSSKMNFWGYSTINFFSPMIRYSSGGIRNCGRDAINEFKTFVREAHKRGIEVIMDVVFNHTAEGNEKGPILSFRGIDNSTYYMLAPKGEFYNYSGCGNTFNCNHPVVREFIVDCLRYWVTEMHVDGFRFDLASIMTRGCSLWDPVNVYGSPVEGDMTTTGTPLATPPLIDMISNDPILGDVKLIAEAWDAGGLYQVGQFPHWKIWSEWNGKYRDIVRQFIKGTDGFAGGFAECLCGSPHLYQAGGRKPWHSINFVCAHDGFTLADLVTYNKKYNSSNGEDNRDGENHNLSWNCGEEGEFAGLSVKRLRKRQMRNFFVSLMVSQGVPMFYMGDEYGHTKGGNNNTYCHDHYVNYFRWDKKEESSDLQRFCSLMTKFRKQCESLGLADFPTAQRLHWHGHQPGKPDWSETSRFVAFSTKDETKGEIYVAFNASHLPAVVGLPERPGYRWEPLVDTGKPAPYDFLTDDLPDRAHAVHLFSHFLNSNLYPMLSYSSIILELQPDD
